The target of experiment [1] is Programmed cell death 1 ligand 1 (PD-L1) (not stated (endogenous in tumor cells, line not named)) (UniProt Q9NZQ7). Briefly: co-IP; endogenous proteins in tumor cells; precipitated with DNA-PK mAb and, in turn, with the antibody against PD-L1; Western blot. (In general: A western blot detects proteins with antibodies after separation by electrophoresis.)
Experiment [2] concerns the target DNA-dependent protein kinase (DNA-PK), PRKDC encoded protein DNA-PKcs (not stated (endogenous in tumor cells, line not named)) (UniProt P78527). Described as above.
Experiment [3] concerns the target DNA-dependent protein kinase (DNA-PK), PRKDC encoded protein DNA-PKcs, in HEK-293 T cells (human) (UniProt P78527). Briefly: co-IP; 'exogenous' co-immunoprecipitation in HEK-293 T cells transfected with hsa_circ_0136666 or miR-375 mimics; Western blot.

Amino acid sequences for entries named in this document (tags omitted). Residues count along the entry.
UniProt Q9NZQ7, residues 19-290: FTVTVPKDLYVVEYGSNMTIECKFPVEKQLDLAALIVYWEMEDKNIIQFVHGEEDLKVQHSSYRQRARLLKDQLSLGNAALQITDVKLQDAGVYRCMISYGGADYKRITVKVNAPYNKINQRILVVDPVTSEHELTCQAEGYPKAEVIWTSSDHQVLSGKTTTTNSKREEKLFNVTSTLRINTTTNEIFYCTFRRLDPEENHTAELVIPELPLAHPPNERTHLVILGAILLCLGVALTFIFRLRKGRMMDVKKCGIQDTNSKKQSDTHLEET
UniProt P78527: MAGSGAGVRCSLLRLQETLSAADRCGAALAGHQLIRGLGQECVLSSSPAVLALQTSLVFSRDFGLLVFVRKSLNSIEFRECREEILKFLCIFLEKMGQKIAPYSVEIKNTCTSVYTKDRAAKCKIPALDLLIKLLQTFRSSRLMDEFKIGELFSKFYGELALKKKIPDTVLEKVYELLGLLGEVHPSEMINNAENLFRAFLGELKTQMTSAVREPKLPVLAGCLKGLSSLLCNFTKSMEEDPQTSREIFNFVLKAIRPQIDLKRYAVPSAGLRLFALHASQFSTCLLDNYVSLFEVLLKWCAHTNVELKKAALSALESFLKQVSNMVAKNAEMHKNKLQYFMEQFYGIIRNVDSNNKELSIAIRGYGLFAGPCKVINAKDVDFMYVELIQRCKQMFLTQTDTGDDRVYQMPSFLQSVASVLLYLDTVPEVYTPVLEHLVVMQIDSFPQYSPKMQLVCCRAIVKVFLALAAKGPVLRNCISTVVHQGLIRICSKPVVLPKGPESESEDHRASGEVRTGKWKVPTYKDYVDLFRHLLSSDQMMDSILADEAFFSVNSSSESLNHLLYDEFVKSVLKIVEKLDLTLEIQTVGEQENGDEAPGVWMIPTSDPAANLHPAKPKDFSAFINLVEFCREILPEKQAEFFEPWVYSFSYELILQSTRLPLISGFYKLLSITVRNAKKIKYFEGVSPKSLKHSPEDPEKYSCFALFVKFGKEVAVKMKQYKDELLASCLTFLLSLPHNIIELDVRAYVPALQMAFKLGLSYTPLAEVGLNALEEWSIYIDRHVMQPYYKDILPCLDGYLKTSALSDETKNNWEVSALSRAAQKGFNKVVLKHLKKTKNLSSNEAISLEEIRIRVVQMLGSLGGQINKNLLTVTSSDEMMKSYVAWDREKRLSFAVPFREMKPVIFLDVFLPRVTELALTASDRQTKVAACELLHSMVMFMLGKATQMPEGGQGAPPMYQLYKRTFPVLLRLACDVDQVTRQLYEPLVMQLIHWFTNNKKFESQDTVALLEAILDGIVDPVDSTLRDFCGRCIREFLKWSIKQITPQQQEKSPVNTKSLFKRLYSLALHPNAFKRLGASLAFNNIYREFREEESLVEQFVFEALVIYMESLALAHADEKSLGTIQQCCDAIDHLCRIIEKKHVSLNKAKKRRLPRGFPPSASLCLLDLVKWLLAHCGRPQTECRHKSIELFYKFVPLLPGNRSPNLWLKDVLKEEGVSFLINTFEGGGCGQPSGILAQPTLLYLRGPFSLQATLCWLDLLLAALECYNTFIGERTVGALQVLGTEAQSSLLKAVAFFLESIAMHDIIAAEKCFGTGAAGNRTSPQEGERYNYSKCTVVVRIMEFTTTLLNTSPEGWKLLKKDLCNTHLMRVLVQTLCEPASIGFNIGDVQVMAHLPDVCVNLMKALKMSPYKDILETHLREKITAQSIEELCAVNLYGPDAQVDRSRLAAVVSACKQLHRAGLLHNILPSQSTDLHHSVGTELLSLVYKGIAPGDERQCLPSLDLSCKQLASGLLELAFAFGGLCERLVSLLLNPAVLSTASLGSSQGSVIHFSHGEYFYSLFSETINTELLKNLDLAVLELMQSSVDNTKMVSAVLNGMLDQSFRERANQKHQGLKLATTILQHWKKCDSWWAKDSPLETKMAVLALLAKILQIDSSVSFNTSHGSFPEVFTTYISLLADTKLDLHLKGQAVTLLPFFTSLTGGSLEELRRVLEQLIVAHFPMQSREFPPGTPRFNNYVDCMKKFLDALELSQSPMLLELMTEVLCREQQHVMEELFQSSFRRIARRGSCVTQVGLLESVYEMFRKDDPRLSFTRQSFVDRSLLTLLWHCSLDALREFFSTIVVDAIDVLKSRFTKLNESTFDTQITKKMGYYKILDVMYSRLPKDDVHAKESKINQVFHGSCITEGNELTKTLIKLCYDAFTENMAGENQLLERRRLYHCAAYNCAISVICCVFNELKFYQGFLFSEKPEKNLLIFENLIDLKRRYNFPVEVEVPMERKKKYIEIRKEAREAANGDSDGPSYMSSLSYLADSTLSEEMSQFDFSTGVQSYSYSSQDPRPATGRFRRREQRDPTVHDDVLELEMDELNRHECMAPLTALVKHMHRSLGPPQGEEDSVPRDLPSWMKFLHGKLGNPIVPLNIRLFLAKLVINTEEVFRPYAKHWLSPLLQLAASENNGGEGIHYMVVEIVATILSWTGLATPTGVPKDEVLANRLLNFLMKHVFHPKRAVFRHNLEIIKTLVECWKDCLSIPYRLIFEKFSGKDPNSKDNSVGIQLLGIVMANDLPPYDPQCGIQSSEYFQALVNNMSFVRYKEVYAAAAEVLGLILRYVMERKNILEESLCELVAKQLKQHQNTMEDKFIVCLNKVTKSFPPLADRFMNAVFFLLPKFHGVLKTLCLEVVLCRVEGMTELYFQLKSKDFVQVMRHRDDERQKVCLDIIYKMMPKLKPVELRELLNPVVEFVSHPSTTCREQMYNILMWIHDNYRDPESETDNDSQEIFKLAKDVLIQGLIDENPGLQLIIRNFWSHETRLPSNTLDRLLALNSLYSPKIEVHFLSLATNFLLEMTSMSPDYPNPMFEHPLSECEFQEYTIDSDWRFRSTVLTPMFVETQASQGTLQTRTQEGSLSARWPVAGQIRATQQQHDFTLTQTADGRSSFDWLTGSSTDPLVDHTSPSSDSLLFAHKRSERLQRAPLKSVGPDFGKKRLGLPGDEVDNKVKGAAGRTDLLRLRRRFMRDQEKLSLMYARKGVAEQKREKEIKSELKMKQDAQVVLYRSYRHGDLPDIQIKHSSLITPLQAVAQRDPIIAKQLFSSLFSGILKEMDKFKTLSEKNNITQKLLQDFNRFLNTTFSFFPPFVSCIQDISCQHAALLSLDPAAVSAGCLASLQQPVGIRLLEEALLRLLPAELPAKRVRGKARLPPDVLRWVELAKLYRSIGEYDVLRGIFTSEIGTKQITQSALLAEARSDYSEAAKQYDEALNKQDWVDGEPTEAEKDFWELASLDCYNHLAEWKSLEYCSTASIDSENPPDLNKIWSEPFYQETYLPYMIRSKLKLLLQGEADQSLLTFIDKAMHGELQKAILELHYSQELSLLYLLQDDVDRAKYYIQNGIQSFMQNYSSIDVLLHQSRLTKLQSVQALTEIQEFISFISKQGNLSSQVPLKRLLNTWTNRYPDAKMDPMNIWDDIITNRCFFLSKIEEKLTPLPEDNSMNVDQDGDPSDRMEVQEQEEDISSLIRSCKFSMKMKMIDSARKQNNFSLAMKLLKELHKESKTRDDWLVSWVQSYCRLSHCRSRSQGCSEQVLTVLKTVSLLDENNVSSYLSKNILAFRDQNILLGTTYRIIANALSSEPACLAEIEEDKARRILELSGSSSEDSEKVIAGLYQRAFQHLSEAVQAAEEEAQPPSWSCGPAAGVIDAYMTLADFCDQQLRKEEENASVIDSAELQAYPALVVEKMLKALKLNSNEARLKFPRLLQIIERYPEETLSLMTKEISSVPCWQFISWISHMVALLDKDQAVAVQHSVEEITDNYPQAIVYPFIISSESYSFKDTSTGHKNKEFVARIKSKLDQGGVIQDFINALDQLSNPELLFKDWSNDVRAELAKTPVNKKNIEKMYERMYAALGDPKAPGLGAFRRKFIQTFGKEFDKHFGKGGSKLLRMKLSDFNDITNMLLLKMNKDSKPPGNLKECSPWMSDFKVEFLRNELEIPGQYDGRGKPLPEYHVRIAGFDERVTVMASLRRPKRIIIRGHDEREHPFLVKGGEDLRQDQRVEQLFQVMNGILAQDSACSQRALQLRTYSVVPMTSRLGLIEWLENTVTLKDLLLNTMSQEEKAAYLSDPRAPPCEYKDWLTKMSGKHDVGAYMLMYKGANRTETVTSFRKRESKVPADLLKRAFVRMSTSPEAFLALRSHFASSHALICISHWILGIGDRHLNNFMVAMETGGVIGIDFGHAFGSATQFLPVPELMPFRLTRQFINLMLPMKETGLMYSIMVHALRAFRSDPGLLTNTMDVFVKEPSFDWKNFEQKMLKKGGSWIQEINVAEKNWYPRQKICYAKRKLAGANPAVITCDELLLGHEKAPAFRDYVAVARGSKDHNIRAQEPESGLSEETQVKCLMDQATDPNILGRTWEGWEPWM

These are yes or no findings as the source states them, for the method shown. Binding seen in cells or lysates may run through a third protein. Some results given as binding are weak or reduced against the parent protein; the word gives no strength.

Turning to “DNA-dependent protein kinase (DNA-PK), PRKDC encoded protein DNA-PKcs (from UniProt P78527 1-4128) (enzyme)”, the binding entry in experiment [1] is “binds”.
“Programmed cell death 1 ligand 1 (PD-L1) (from UniProt Q9NZQ7 19-290)”: the binding entry in experiment [2] is “binds”.
Consider “Programmed cell death 1 ligand 1 (PD-L1), in HEK-293 T cells (from UniProt Q9NZQ7 19-290)”, for which, in experiment [3], the binding entry is given as “binds”.

The values are drawn from paper PMC10718020.
